{
  "sequences": {"note": "Sequences of proteins named here, by UniProt entry; tags and fusion partners are left off. A change or cut given only in a name is not applied to a line headed by its entry.", "UniProt Q9UNA4": "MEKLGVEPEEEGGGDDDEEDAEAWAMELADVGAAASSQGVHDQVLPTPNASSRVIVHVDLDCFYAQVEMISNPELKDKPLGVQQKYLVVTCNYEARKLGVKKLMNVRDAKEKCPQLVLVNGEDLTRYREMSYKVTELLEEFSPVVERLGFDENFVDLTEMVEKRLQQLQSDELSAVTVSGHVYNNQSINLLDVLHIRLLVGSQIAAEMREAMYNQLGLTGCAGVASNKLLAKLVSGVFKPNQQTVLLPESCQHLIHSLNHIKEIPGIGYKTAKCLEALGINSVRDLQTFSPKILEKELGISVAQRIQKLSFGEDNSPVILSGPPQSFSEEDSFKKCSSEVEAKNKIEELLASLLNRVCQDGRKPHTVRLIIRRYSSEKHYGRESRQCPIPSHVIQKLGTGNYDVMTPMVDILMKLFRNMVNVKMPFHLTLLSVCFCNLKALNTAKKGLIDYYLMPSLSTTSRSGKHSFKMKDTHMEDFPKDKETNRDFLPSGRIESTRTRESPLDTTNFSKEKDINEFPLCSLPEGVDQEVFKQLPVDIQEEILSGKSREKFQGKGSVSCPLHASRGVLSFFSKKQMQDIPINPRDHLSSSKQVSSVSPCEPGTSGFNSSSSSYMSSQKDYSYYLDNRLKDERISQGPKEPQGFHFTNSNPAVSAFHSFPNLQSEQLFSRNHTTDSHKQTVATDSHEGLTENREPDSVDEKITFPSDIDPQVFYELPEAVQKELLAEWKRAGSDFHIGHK"},
  "source": "PubChem BioAssay AID588590",
  "about": "(National Center for Advancing Translational Sciences (NCATS), 2011)",
  "note": "Among all 390,000 compounds or so, about 4,000 (1%) were called active. This list was built around the results that the source calls inconclusive (neither active nor inactive); the mix of calls is not that of the screen. Calls come from the whole dose curve; as a rule, active = well fitted inhibition curve with a large enough effect; inconclusive = small, poorly fitted or top-dose-only effect, or another doubt; inactive = no such curve, though single readings can be large or run the other way. A potency beside an inconclusive call is a rough fit, not a confirmed value. Potency is the fitted concentration of half-maximal effect.",
  "data": [
    {"target": "DNA polymerase iota (Homo sapiens) (UniProt Q9UNA4)", "test": "qHTS for Inhibitors of Polymerase Iota", "conditions": "Pol iota fluorescent replication assay, 10 min; series mostly up to 115 µM; activity, negative = inhibition: at the top concentration", "outline": "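Pol iota at 10 nM preincubated 15 min with compounds at room temperature; reaction started with fluorescent substrate, 50 nM final. Fluorescence read kinetically at 0 and 10 min; buffer-only wells as negative control.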", "values": [
      {"smiles": "CCOc1ccc(NC(=O)Cn2cc(C(=O)c3ccc(OCC)cc3)c(=O)c3cc4c(cc32)OCCO4)cc1", "Potency": "inconclusive: 4.47 µM [inhibitor, full curve, poor fit]"},
      {"smiles": "O=C(NNC(=O)C1[C@H]2CCCC[C@@H]12)Nc1cccc2ccccc12", "note": "(some centres undefined)", "activity, negative = inhibition": "inactive: 1.42%"},
      {"smiles": "CCc1ccc(-c2cc(C)no2)cc1S(=O)(=O)Nc1ccc(Cl)cn1", "Potency": "inconclusive: 17.8 µM [inhibitor, partial curve, poor fit]"},
      {"smiles": "O=C(CN1CCN(c2ccc(O)cc2)CC1)Nc1cc(S(=O)(=O)N2CCCC2)ccc1Cl", "Potency": "inconclusive: 79.4 µM [inhibitor, partial curve]"},
      {"smiles": "COc1ccc(C(=O)NNC(=O)CN2CCC(n3nnc4cc(F)ccc43)CC2)cc1", "Potency": "inconclusive: 79.4 µM [inhibitor, partial curve, poor fit]"},
      {"smiles": "O=C(/C=C\\c1ccccc1OC(=O)c1ccccc1F)c1cc2ccccc2o1", "Potency": "inconclusive: 25.1 µM [inhibitor, single point]"},
      {"smiles": "S=c1[nH]nc(-c2ccccc2)n1CC1CCCO1", "note": "(centres undefined)", "activity, negative = inhibition": "inactive: -1.7%"},
      {"smiles": "COc1cc(/C=C2/S/C(=N/S(=O)(=O)Cc3ccccc3)NC2=O)c([N+](=O)[O-])cc1OC", "Potency": "inconclusive: 63.1 µM [inhibitor, single point]"},
      {"smiles": "Cc1ccc(OCC(=O)OCC(=O)N2c3ccccc3CC2C)cc1C", "note": "(centres undefined)", "Potency": "inconclusive: 0.631 µM [inhibitor, full curve, poor fit]"},
      {"smiles": "O=C(N/N=C/C(Br)=C/c1ccccc1)c1n[nH]c2c1CCC2", "Potency": "active: 3.55 µM"},
      {"smiles": "CCOc1ccc(C(=O)Nc2ccc(C(=O)OCc3cc(=O)n4nc(CC)sc4n3)cc2)cc1", "activity, negative = inhibition": "inactive: -5.18%"},
      {"smiles": "Oc1cnc2ccccc2c1CN1CCOCC1", "Potency": "inconclusive: 25.1 µM [inhibitor, single point]"},
      {"smiles": "CCn1cnnc1SCC(=O)c1c(N)n(C2CC2)c(=O)[nH]c1=O", "activity, negative = inhibition": "inactive: -18.7%"},
      {"smiles": "COCCN(C(=O)Cn1nnc2ccccc21)C(C(=O)NC1CCCCC1)c1ccc(OC)cc1OC", "note": "(centres undefined)", "Potency": "inconclusive: 79.4 µM [inhibitor, partial curve, poor fit]"},
      {"smiles": "O=C(C[C@@H]1C/C=C\\C[C@H](NC(=O)OCC2c3ccccc3-c3ccccc32)C(=O)OC[C@@H]2CCCN2C1=O)NCCO", "activity, negative = inhibition": "inactive: -1.2%"},
      {"smiles": "Cc1cc(N2O[C@H]3C=C[C@@H]2C3)no1", "Potency": "inconclusive: 79.4 µM [inhibitor, single point]"},
      {"smiles": "CCS(=O)(=O)c1nc(S(=O)(=O)c2ccc(C)cc2)c(NCc2ccc(Cl)cc2)s1", "Potency": "inconclusive: 100 µM [inhibitor, partial curve, poor fit]"},
      {"smiles": "CNC(=S)N/N=C/c1ccc(-c2ccc(C(=O)O)cc2)o1", "Potency": "inconclusive: 20 µM [inhibitor, full curve, poor fit]"},
      {"smiles": "CC1(C)OC(=O)C(=CNC(=O)c2c(F)cccc2F)C(=O)O1", "Potency": "inconclusive: 50.1 µM [inhibitor, single point]"},
      {"smiles": "CN1CCN(S(=O)(=O)NC[C@H]2O[C@@H](n3cnc4c(N)ncnc43)[C@H](O)[C@@H]2O)CC1", "Potency": "inconclusive: 3.55 µM [inhibitor, full curve, poor fit]"},
      {"smiles": "N#C/C(=C\\c1cccs1)C(=O)Nc1nccs1", "Potency": "inconclusive: 15.8 µM [inhibitor, partial curve]"},
      {"smiles": "COC(=O)C1=C(CCc2ccccc2)NC(=O)NC1c1ccc([N+](=O)[O-])cc1", "note": "(centres undefined)", "activity, negative = inhibition": "inactive: -1.95%"},
      {"smiles": "O=C(O)CSc1nnc(Nc2ccccc2)n1-c1ccccc1", "activity, negative = inhibition": "inactive: 94.8%"},
      {"smiles": "COC(=O)Nc1nc2ccc(-c3n[nH]c(=O)c4ccccc34)cc2[nH]1", "Potency": "inconclusive: 112 µM [inhibitor, partial curve, poor fit]"},
      {"smiles": "COc1ccc(NC(=O)c2cc(-c3ccc(C)o3)nc3ccccc23)cc1", "Potency": "inconclusive: 25.1 µM [inhibitor, partial curve]"},
      {"smiles": "O=[N+]([O-])c1cccc(-c2cn3ccccc3n2)c1", "Potency": "inconclusive: 89.1 µM [inhibitor, partial curve, poor fit]"},
      {"smiles": "CC(=O)N1CCN(c2ccc(NCc3cccc4ccccc34)cc2)CC1", "Potency": "inconclusive: 56.2 µM [inhibitor, partial curve, poor fit]"},
      {"smiles": "COc1cccc(NS(=O)(=O)c2ccc3[nH]cc(C(=O)NC4CCCCC4)c(=O)c3c2)c1", "Potency": "inconclusive: 56.2 µM [inhibitor, partial curve, poor fit]"},
      {"smiles": "CCN(CC)CCn1c2ccccc2c2nc3ccccc3nc21", "Potency": "inconclusive: 20 µM [inhibitor, full curve, poor fit]"},
      {"smiles": "CN(Cc1ccccc1)S(=O)(=O)c1ccc(N2CCOCC2)nc1", "Potency": "inconclusive: 89.1 µM [inhibitor, partial curve, poor fit]"},
      {"smiles": "Cc1cc(C)nc(S/C=C/C(=O)c2ccccc2)n1", "Potency": "inconclusive: 17.8 µM [inhibitor, partial curve, poor fit]"},
      {"smiles": "CCOC(=O)c1c(/N=C/c2ccc(OC)cc2O)sc2c1CCN(C)C2", "Potency": "inconclusive: 11.2 µM [inhibitor, full curve, poor fit]"},
      {"smiles": "Cc1cccn2c(=O)c(/C=C3\\SC(=S)NC3=O)c(NCCCN3CCOCC3)nc12", "activity, negative = inhibition": "inactive: 9.29%"},
      {"smiles": "CN(C(=O)Nc1cn(C)c(=O)c2ccccc12)c1ccccc1", "Potency": "inconclusive: 89.1 µM [inhibitor, single point]"},
      {"smiles": "Nc1ccc(Nc2ccccc2)c(S(=O)(=O)O)c1", "Potency": "active: 11.2 µM"},
      {"smiles": "O=C(C[N+]12CN3CN(CN(C3)C1)C2)c1ccc(-c2ccccc2)cc1", "activity, negative = inhibition": "inactive: 11.9%"},
      {"smiles": "COc1cc(CNC(=O)CCCCCCC(C)C)ccc1O", "Potency": "inconclusive: 22.4 µM [inhibitor, partial curve, poor fit]"},
      {"smiles": "CN1CCc2nc(SCC(=O)Nc3ccc(OC(F)(F)F)cc3)c(C#N)c(-c3cccs3)c2C1", "activity, negative = inhibition": "inactive: 16.2%"},
      {"smiles": "O=C(/C=C/c1ccc(Cl)cc1)NC(=S)Nc1ccccc1C(=O)O", "Potency": "inconclusive: 12.6 µM [inhibitor, full curve]"},
      {"smiles": "O=C(O)/C=C/c1ccc2c(c1)S(=O)(=O)N(C1CCCC1)[C@H]2CC(=O)O", "Potency": "inconclusive: 89.1 µM [inhibitor, partial curve, poor fit]"},
      {"smiles": "CCCCNc1cc(NC2CCCCC2)c2c3c(onc13)-c1ccccc1C2=O", "Potency": "inconclusive: 8.91 µM [inhibitor, full curve]"},
      {"smiles": "Cn1nccc1C(=O)Nc1cc(Cl)ccc1Cl", "Potency": "inconclusive: 35.5 µM [inhibitor, partial curve, poor fit]"},
      {"smiles": "Nc1c(Br)cc2c([nH]c(=O)c3ccccc32)c1Br", "Potency": "inconclusive: 50.1 µM [inhibitor, partial curve]"},
      {"smiles": "Cc1ccccc1NC(=O)CN(C)S(=O)(=O)c1cccc2nsnc12", "activity, negative = inhibition": "inactive: 32%"},
      {"smiles": "CCSc1nnc(NC(=O)C(C)Sc2nc3ccccc3[nH]2)s1", "note": "(centres undefined)", "Potency": "inconclusive: 112 µM [inhibitor, partial curve, poor fit]"},
      {"smiles": "Nc1ccc(C#Cc2ccc3c(=O)c4ccccc4oc3c2)cc1", "Potency": "inconclusive: 5.01 µM [inhibitor, full curve, poor fit]"},
      {"smiles": "O=C(Nc1ccccc1C(=O)O)c1cccc(S(=O)(=O)N2CCCC2)c1", "activity, negative = inhibition": "inactive: 6.42%"},
      {"smiles": "O=C(Nc1ccc2oc(-c3ccncc3)nc2c1)c1ccc2c(c1)OCO2", "Potency": "inconclusive: 10 µM [inhibitor, full curve]"},
      {"smiles": "Cc1ccc(-c2cc(-c3ccc(C)o3)nc(N)c2C#N)cc1", "Potency": "inconclusive: 14.1 µM [inhibitor, full curve, poor fit]"},
      {"smiles": "Cc1ccc2c(CN3C(=O)NC(C)(c4ccc5c(c4)OCO5)C3=O)cc(=O)oc2c1", "note": "(centres undefined)", "Potency": "inconclusive: 8.91 µM [inhibitor, full curve, poor fit]"},
      {"smiles": "O=C(O)CN1C(=O)/C(=C\\c2cc(Br)ccc2OCc2ccccc2F)SC1=S", "activity, negative = inhibition": "inactive: -24.7%"},
      {"smiles": "COc1ccc(-c2ccc(CCC(=O)O)n2Cc2ccco2)cc1", "Potency": "inconclusive: 39.8 µM [inhibitor, partial curve, poor fit]"},
      {"smiles": "COc1ccccc1N=c1sc2ccccc2n1C", "Potency": "inconclusive: 70.8 µM [inhibitor, partial curve]"},
      {"smiles": "Cc1cccc(NC(=O)CN2CCN(C(=O)c3ccc(OCc4cn5ccccc5n4)cc3)CC2)c1C", "Potency": "inconclusive: 56.2 µM [inhibitor, partial curve, poor fit]"},
      {"smiles": "COc1ccc(CN2CCCC(CNC(=O)c3ccc(F)cc3)C2)c(C)c1C", "note": "(centres undefined)", "Potency": "inconclusive: 56.2 µM [inhibitor, partial curve, poor fit]"},
      {"smiles": "CCOC(=O)c1c(C)sc(-c2c(-c3cc(C)ccc3C)[nH]c3c2c(=O)[nH]c(=O)n3C)c1O", "Potency": "active: 89.1 µM"},
      {"smiles": "Cc1cccc(NC(=O)Cn2nc(N3CCN(c4ccccc4)CC3)ccc2=O)c1C", "Potency": "inconclusive: 89.1 µM [inhibitor, partial curve, poor fit]"},
      {"smiles": "CCOc1ccc(C(=O)NCCCCNC(=O)c2ccc(OCC)cc2)cc1", "activity, negative = inhibition": "inactive: 101%"},
      {"smiles": "Cc1c(Cl)c(C(F)F)nn1CC(=O)NC1C(=O)N2C(C(=O)O)=C(CSc3nnnn3C)CSC12", "note": "(centres undefined)", "Potency": "inconclusive: 20 µM [inhibitor, partial curve, poor fit]"},
      {"smiles": "Cc1cc(=O)oc2cc(OCC(=O)NC(Cc3c[nH]c4ccc(O)cc34)C(=O)O)c(Cl)cc12", "note": "(centres undefined)", "Potency": "active: 70.8 µM"},
      {"smiles": "O=c1c2ccccc2sc2ccc(NCCCN3CCOCC3)cc12", "Potency": "inconclusive: 35.5 µM [inhibitor, partial curve]"},
      {"smiles": "Cc1cc(O)c(C(=O)c2cnc3c(c2)COc2ccccc2-3)cc1Cl", "Potency": "inconclusive: 79.4 µM [inhibitor, single point]"},
      {"smiles": "O=C(CSc1ncn(-c2ccccc2)n1)Nc1nccs1", "Potency": "inconclusive: 22.4 µM [inhibitor, full curve, poor fit]"},
      {"smiles": "Cc1cc(=O)[nH]c(N=N/C(=N/Nc2ccc(O)cc2)c2ccccc2)n1", "Potency": "inconclusive: 2.24 µM [inhibitor, partial curve, poor fit]"}
    ]}
  ]
}
